# Data as given in PMC11204552.
# No constants are given. Whether binding was seen depends on the method and setting. A result given as binding can be weak or reduced; the word gives no strength.
# Target: T1, CfAtg8 (Colletotrichum fructicola)
# T1 sequence: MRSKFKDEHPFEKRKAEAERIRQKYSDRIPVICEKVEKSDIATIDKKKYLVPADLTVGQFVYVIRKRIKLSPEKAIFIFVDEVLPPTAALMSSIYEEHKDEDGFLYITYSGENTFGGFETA
# Assay: two-hybrid; pGADT7 (prey) and pGBKT7 (bait) fusions co-transformed into yeast strain AH109; selected on SD-Leu-Trp, then growth on SD-His/-Leu/-Trp medium
substance,measurement,value
CfAtg4 (Colletotrichum fructicola) (enzyme),binding,binds
